{
  "source": "patent US20180028622A1",
  "about": "“TREATMENT OF OSTEOPOROSIS” (Entera Bio Ltd., priority 2015, published 2018)",
  "experiment": "Open label pharmacokinetic study of oral teriparatide tablet, two visits",
  "type": "in vivo, human",
  "conditions": "oral tablet 0.75 mg; all subjects and administrations",
  "procedure": "An open label comparative pharmacokinetic study was performed in healthy volunteers over the course of 3 months. Each volunteer received—in each of two visits—the same oral tablet containing 0.75 mg of teriparatide, a recombinant form of parathyroid hormone (1-34).\nThe formulation was composed of teriparatide (0.75 mg), SNAC (sodium 8-N-(2-hydroxybenzoyl)aminocaprylate), soybean trypsin inhibitor (SBTI) and a small amount of magnesium stearate.\nTablets were administered in the morning after an 8-hour overnight fast and immediately followed by 150 ml of water. At each visit a standard meal was provided 3 hours after drug administration. […] There was a two weeks period between the visits.\nTo determine parathyroid hormone(1-34) (PTH(1-34)) concentrations, blood samples (4 ml each) were drawn via an indwelling catheter from the forearm vein at predetermined time points during each visit. The cannula was flushed with 1.5 ml normal saline after each sampling. In addition, to avoid sample dilution, 1 ml of blood was drawn and discarded before the next sample. […] PTH(1-34) levels were measured using an IDS-iSYS automated assay for the measurement of intact PTH(1-34) in human plasma or serum.",
  "note": "The name of at least one read-out is uncertain.",
  "data": [
    {"smiles": "CC[C@H](C)[C@H](NC(=O)[C@H](CCC(=O)O)NC(=O)[C@H](CO)NC(=O)[C@@H](NC(=O)[C@@H](N)CO)C(C)C)C(=O)N[C@@H](CCC(N)=O)C(=O)N[C@@H](CC(C)C)C(=O)N[C@@H](CCSC)C(=O)N[C@@H](Cc1cnc[nH]1)C(=O)N[C@@H](CC(N)=O)C(=O)N[C@@H](CC(C)C)C(=O)NCC(=O)N[C@@H](CCCCN)C(=O)N[C@@H](Cc1cnc[nH]1)C(=O)N[C@@H](CC(C)C)C(=O)N[C@@H](CC(N)=O)C(=O)N[C@@H](CO)C(=O)N[C@@H](CCSC)C(=O)N[C@@H](CCC(=O)O)C(=O)N[C@@H](CCCN=C(N)N)C(=O)N[C@H](C(=O)N[C@@H](CCC(=O)O)C(=O)N[C@@H](Cc1c[nH]c2ccccc12)C(=O)N[C@@H](CC(C)C)C(=O)N[C@@H](CCCN=C(N)N)C(=O)N[C@@H](CCCCN)C(=O)N[C@@H](CCCCN)C(=O)N[C@@H](CC(C)C)C(=O)N[C@@H](CCC(N)=O)C(=O)N[C@@H](CC(=O)O)C(=O)N[C@H](C(=O)N[C@@H](Cc1cnc[nH]1)C(=O)N[C@@H](CC(N)=O)C(=O)N[C@@H](Cc1ccccc1)C(=O)O)C(C)C)C(C)C", "note": "[teriparatide]", "values": [
      {"measurement": "time at which peak concentration (Cmax) occurred after administration", "value": "≤ 20", "unit": "min"}
    ]}
  ]
}
